The experiment concerns P388 leukemia ip, CD2F1 mice, survival T/C. The experiment is described as follows: NCI In Vivo Anticancer Drug Screen. Data for tumor model P388 Leukemia (intraperitoneal) in CD2F1 (CDF1) mice. The settings on record: T/C endpoint: median survival time, higher T/C = longer survival.
Setting [1] is: dose: 100.0 mg/kg/injection, schedule: Q01DX005 (ip), vehicle: saline.
[2] abbreviates: dose: 200.0 mg/kg/injection, schedule: Q01DX005 (ip), vehicle: saline.
Where [3] appears, read: dose: 50.0 mg/kg/injection, schedule: Q01DX005 (ip), vehicle: Klucel (hydroxypropylcellulose) (HPC).
Setting [4] is: dose: 100.0 mg/kg/injection, schedule: Q01DX005 (ip), vehicle: Klucel (hydroxypropylcellulose) (HPC).
[5] abbreviates: dose: 200.0 mg/kg/injection, schedule: Q01DX005 (ip), vehicle: Klucel (hydroxypropylcellulose) (HPC).
The mark [6] stands for this setting: dose: 240.0 mg/kg/injection, schedule: Q01DX005 (ip), vehicle: Klucel (hydroxypropylcellulose) (HPC).
[7] abbreviates: dose: 200.0 mg/kg/injection, schedule: Q04DX003 (ip), vehicle: Klucel (hydroxypropylcellulose) (HPC).
[8] abbreviates: dose: 7.5 mg/kg/injection, schedule: Q01DX005 (ip), vehicle: Klucel (hydroxypropylcellulose) (HPC).
[9] abbreviates: dose: 120.0 mg/kg/injection, schedule: Q01DX005 (ip), vehicle: Klucel (hydroxypropylcellulose) (HPC).

Data on 24 molecules can be found in PubChem BioAssay AID330 (DTP/NCI, 2004).

The list shows only some results of the screen, not a fair sample: it gathers tests that were run many times, whatever their T/C, doses with no T/C, and many T/C values between a quarter and a half above the control. Further doses and runs are listed elsewhere. T/C is the treated group as % of the vehicle group. Some entries give survivors of the animals treated and no T/C: the source holds a T/C of zero for them, seemingly a mark for toxic or unscored doses. Some survivor counts are full or nearly so, which does not show that the dose was tolerated: survival well below the control is almost never listed, so the zero probably covers shortened survival too. Counts of survivors are from the toxicity check (mostly the fifth day) where no day follows; animals may have died later. Schedules are NCI's codes, taken here to give the interval after Q, in days (D) or hours (H), and the number of doses after X. Some molecules as drawn cover several salts, stereoisomers or complexes of the source; a dose is that of the sample tested. For survival time, this PubChem deposit counts one and a half times the control or more as active, and values a quarter to a half above the control carry no call in these data; other NCI protocols may use other cut-offs. Some doses were run more than once; their values stand side by side, smallest first.

In the case of `O=C(Nc1ccc(Cl)c(Cl)c1)Nc1ccc(Cl)c(Cl)c1` (tested in a mixture with another compound), the survivor count (dose: 25.0 mg/kg/injection, schedule: Q01DX009 (ip), vehicle: saline with Tween-80) is 6 of 6.

On to `CC(=O)OCC#CCN1CCOCC1`, for which the T/C is 141 % of control under setting [1] and 141 % of control under setting [2]. For the same molecule, under “dose: 240.0 mg/kg/injection, schedule: Q01DX005 (ip), vehicle: suspension in saline”, the survivor count is 2 of 6.

Turning to `COc1cc2c(cc1O)C1CC(CC3CCCCN31)OC(=O)/C=C\c1ccc(O)c-2c1` (centres undefined), the survivor count (dose: 400.0 mg/kg/injection, schedule: Q04DX003 (ip), vehicle: saline) was 1 of 6.

Take `CN1CCCN(C)C1c1ccc(Cl)cc1`: where the note is “dose: 6.25 mg/kg/injection, schedule: Q01DX009 (ip), vehicle: saline sonified”, the survivor count is on record as 6 of 6.

Take `CCCC(=O)NN=C(C)C`: for the setting “dose: 50.0 mg/kg/injection, schedule: Q01DX009 (ip), vehicle: saline”, the survivor count is on record as 6 of 6.

As for `CCn1c(=O)c(C#N)c2n(CC)c3ccccc3n2c1=O`, the survivor count (dose: 60.0 mg/kg/injection, schedule: Q01DX005 (ip), vehicle: saline with Tween-80) is on record as 6 of 6; the survivor count (dose: 120.0 mg/kg/injection, schedule: Q01DX005 (ip), vehicle: saline with Tween-80) was 6 of 6; the survivor count (dose: 240.0 mg/kg/injection, schedule: Q01DX005 (ip), vehicle: saline with Tween-80) was 6 of 6.

With `NCCCCNC(c1ccccc1)C(O)c1ccccc1` (centres undefined), under “dose: 200.0 mg/kg/injection, schedule: Q01DX009 (ip), vehicle: Klucel (hydroxypropylcellulose) (HPC)”, the survivor count was 0 of 6.

For `CCOC(=O)/C(C#N)=C\c1ccc(OCc2ccccc2)c(OCc2ccccc2)c1`, under setting [3], the survivor count is listed as 6 of 6.

As to `Cc1c(C)c(C[P+](CCP(c2ccccc2)c2ccccc2)(c2ccccc2)c2ccccc2)c(C)c(C)c1C[P+](CCP(c1ccccc1)c1ccccc1)(c1ccccc1)c1ccccc1`, the survivor count runs as follows: (dose: 25.0 mg/kg/injection, schedule: Q04DX002 (ip), vehicle: saline with Tween-80) 4 of 6; (dose: 50.0 mg/kg/injection, schedule: Q04DX002 (ip), vehicle: saline with Tween-80) 2 of 6.

With `CN(C)C(=S)N/N=C/c1ccccn1`, the survivor count is, setting by setting: (dose: 25.0 mg/kg/injection, schedule: Q01DX005 (ip), vehicle: Klucel (hydroxypropylcellulose) (HPC)) 3 of 6; under setting [3], 0 of 6; under setting [4], 0 of 6; under setting [5], 0 of 6.

Turning to `C/C=C(\C)c1cc(=O)c2c(C)cc3c(c2o1)C(=O)c1c(O)c(C2CC(C)(N(C)C)C(OC(C)=O)C(C)O2)cc(C2CC(N(C)C)C(O)C(C)O2)c1C3=O` (centres undefined), the T/C (dose: 0.15 mg/kg/injection, schedule: Q01DX009 (ip), vehicle: saline) is 126 % of control; the T/C (dose: 0.31 mg/kg/injection, schedule: Q01DX009 (ip), vehicle: saline) was 126 % of control; the T/C (dose: 0.62 mg/kg/injection, schedule: Q01DX009 (ip), vehicle: saline) was 139 and 149 % of control; the T/C (dose: 1.25 mg/kg/injection, schedule: Q01DX009 (ip), vehicle: saline) is 145 % of control.

On to `CC1CCCCN1CC(C)(C)C` (centres undefined), for which, under setting [6], the survivor count is listed as 0 of 6.

As to `C1[Se]CC12C[Se]C2`, the survivor count is, setting by setting: (dose: 40.0 mg/kg/injection, schedule: Q01DX009 (ip), vehicle: saline with Tween-80) 5 of 6; (dose: 80.0 mg/kg/injection, schedule: Q01DX009 (ip), vehicle: saline with Tween-80) 0 of 6.

For the molecule `C=C(Cl)CNc1ccccc1C(=O)O`, the survivor count is 6 of 6 under setting [7] and 6 of 6 (dose: 400.0 mg/kg/injection, schedule: Q04DX003 (ip), vehicle: Klucel (hydroxypropylcellulose) (HPC)).

`COC(=O)Cn1/c(=N\N=C(/C)c2ccc([N+](=O)[O-])cc2)sc2ccccc21`: the survivor count reads like this: (dose: 100.0 mg/kg/injection, schedule: Q01DX001 (ip), vehicle: saline with Tween-80) 6 of 6; (dose: 200.0 mg/kg/injection, schedule: Q01DX001 (ip), vehicle: saline with Tween-80) 6 of 6.

As to `O=S(=O)(O)CC[S][Sn]([S]CCS(=O)(=O)O)([c]1ccccc1)[c]1ccccc1` (tested in a mixture with another compound), the T/C runs as follows: (dose: 0.93 mg/kg/injection, schedule: Q01DX005 (ip), vehicle: Klucel (hydroxypropylcellulose) (HPC)) 134 % of control; (dose: 3.75 mg/kg/injection, schedule: Q01DX005 (ip), vehicle: Klucel (hydroxypropylcellulose) (HPC)) 137 % of control; under setting [8], 137 % of control. Further, the survivor count reads like this: under setting [8], 3 of 6; (dose: 15.0 mg/kg/injection, schedule: Q01DX005 (ip), vehicle: Klucel (hydroxypropylcellulose) (HPC)) 1 of 6; (dose: 60.0 mg/kg/injection, schedule: Q01DX005 (ip), vehicle: Klucel (hydroxypropylcellulose) (HPC)) 0 of 6; under setting [9], 0 of 6; under setting [6], 0 of 6.

On to `O=C1C2=C(Nc3cc([N+](=O)[O-])ccc3N2)OC1c1ccc(Cl)cc1Cl` (centres undefined), for which the survivor count under setting [9] is on record as 6 of 6.

As for `COC(=O)c1cccc2c(Br)cc3ccccc3c12`, where the note is “dose: 75.0 mg/kg/injection, schedule: Q04DX003 (ip), vehicle: Klucel (hydroxypropylcellulose) (HPC)”, the survivor count is 6 of 6.

As for `O=C(CCCCC(=O)Nc1cc(C2=NCCN2)cc(C2N=CCN2)c1)Nc1cc(C2=NCCN2)cc(C2=NCCN2)c1` (centres undefined), the survivor count reads like this: (dose: 12.5 mg/kg/injection, schedule: Q01DX005 (ip), vehicle: saline) 0 of 6; (dose: 25.0 mg/kg/injection, schedule: Q01DX005 (ip), vehicle: saline) 0 of 6; (dose: 50.0 mg/kg/injection, schedule: Q01DX005 (ip), vehicle: saline) 0 of 5; under setting [1], 0 of 5; under setting [2], 0 of 5.

As for `Cc1ccc(N=Nc2c(-c3cccs3)nn(C(N)=S)c2C(F)(F)F)cc1`, the survivor count was 2 of 6 under setting [3], 0 of 6 under setting [4] and 0 of 6 under setting [5].

`CCC(C)C1NC(=O)C2CCCN2C(=O)C(CC(C)C)OC(=O)CCNC(=O)C(C)N(C)C(=O)C(C(C)C)N(C)C1=O` (centres undefined): the survivor count is listed as 0 of 6 (dose: 20.0 mg/kg/injection, schedule: Q01DX005 (ip), vehicle: saline with Tween-80); 0 of 6 (dose: 40.0 mg/kg/injection, schedule: Q01DX005 (ip), vehicle: saline with Tween-80); 0 of 6 (dose: 80.0 mg/kg/injection, schedule: Q01DX005 (ip), vehicle: saline with Tween-80).

For `CCN(CC)CCC(=O)Nc1cccc2c1C(=O)c1c(c(O)c3ccccc3c1O)C2=O`, the survivor count under setting [7] is listed as 3 of 6.

Consider `CC(=O)Oc1ccccc1C(=O)OCC(=O)c1ccc2c(c1)Nc1ccccc1S2`, for which the survivor count (dose: 12.5 mg/kg/injection, schedule: Q01DX001 (ip), vehicle: Klucel (hydroxypropylcellulose) (HPC)) is reported as 6 of 6; the survivor count (dose: 25.0 mg/kg/injection, schedule: Q01DX001 (ip), vehicle: Klucel (hydroxypropylcellulose) (HPC)) is 6 of 6; the survivor count (dose: 50.0 mg/kg/injection, schedule: Q01DX001 (ip), vehicle: Klucel (hydroxypropylcellulose) (HPC)) was 6 of 6; the survivor count (dose: 100.0 mg/kg/injection, schedule: Q01DX001 (ip), vehicle: Klucel (hydroxypropylcellulose) (HPC)) is given as 6 of 6.

Take `C=C(C)C12CC(COC(=O)c3ccccc3)C34OC5(OC1C3C1OC1(CO)C(O)C1(O)C(OC(=O)c3ccccc3)C(C)C(C(C)CCCCCCC5O)C14)O2` (centres undefined): the T/C was 147 % of control (dose: 6.3 micrograms/kg/injection, schedule: Q01DX009 (ip), vehicle: saline with Tween-80); 127 and 128 % of control (dose: 6.3 micrograms/kg/injection, schedule: Q01DX009 (ip), vehicle: saline); 130 and 138 % of control (dose: 12.5 micrograms/kg/injection, schedule: Q01DX009 (ip), vehicle: saline); 140 % of control (dose: 25.0 micrograms/kg/injection, schedule: Q01DX009 (ip), vehicle: saline).
